{"source": "the supplement of paper PMC4604168 (melanoma cell lines)", "note": "Some of the results follow. Many values rest on one well or one pass, so single values are uncertain.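 Cells were imaged in 1,536-well plates, and nuclei stained with an antibody against cleaved PARP were counted against all DNA-stained nuclei to give the apoptosis fraction. Screening doses were chosen to leave most cells alive, and resting and induced cleaved-PARP levels differ strongly between cell lines.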", "data": [{"tested_on": "WM1716", "experiment": "cleaved PARP positive nuclei fraction relative to DMSO control; higher = more apoptosis", "conditions": "library dose: low library concentration; 72 h", "units": {"cleaved PARP positive nuclei fraction": "%"}, "values": [{"smiles": "CN1CCN(c2ccc3nc(-c4c(N)c5c(F)cccc5[nH]c4=O)[nH]c3c2)CC1", "note": "[Dovitinib] + COc1cc2c(Oc3ccc4[nH]c(C)cc4c3F)ncnc2cc1OCCCN1CCCC1 [cediranib] (first compound 0.1 µM, partner dose 0.4 µM)", "cleaved PARP positive nuclei fraction": 70.7}, {"smiles": "CC(C)C[C@H](NC(=O)[C@H](Cc1ccccc1)NC(=O)c1cnccn1)B(O)O", "note": "[Bortezomib] + CC(C)CCN1c2nc(Nc3cc(F)c(O)c(F)c3)ncc2N(C)C(=O)C1C [BID1870] (first compound 0.001 µM, partner dose 0.2 µM)", "cleaved PARP positive nuclei fraction": 990}, {"smiles": "O=C(O)c1ccc2c(c1)nc(Nc1cccc(Cl)c1)c1ccncc12", "note": "+ NCC(=O)Nc1ccc(-n2nc(C(F)(F)F)cc2-c2ccc3c(ccc4ccccc43)c2)cc1 [OSU03012] (first compound 0.4 µM, partner dose 1 µM)", "cleaved PARP positive nuclei fraction": 226}, {"smiles": "Nc1ncn([C@H]2C[C@H](O)[C@@H](CO)O2)c(=O)n1", "note": "[decitabine] + Cn1cc(/C=C2\\C(=O)Nc3cccnc32)c2ccccc21 [GW441756] (first compound 0.1 µM, partner dose 0.4 µM)", "cleaved PARP positive nuclei fraction": 106}, {"smiles": "CNC(=O)c1cc(Oc2ccc(NC(=O)Nc3ccc(Cl)c(C(F)(F)F)c3)cc2)ccn1", "note": "[sorafenib] + Oc1nc(-c2ccc(C(F)(F)F)cc2)nc2c1CSCC2 [XAV939] (first compound 0.4 µM, partner dose 2 µM)", "cleaved PARP positive nuclei fraction": 81.2}, {"smiles": "O=C(O)[C@@H]1[O][Sb](=[O])([O][Sb]2(=[O])[O][C@H]([C@H](O)CO)[C@H](O)[C@H](C(=O)O)[O]2)[O][C@H]([C@H](O)CO)[C@@H]1O", "note": "(stereo not given in full) [stibogluconate] + C=CCn1c(=O)c2cnc(Nc3ccc(N4CCN(C)CC4)cc3)nc2n1-c1cccc(C(C)(C)O)n1 [MK1775] (first compound 2 µM, partner dose 0.02 µM)", "cleaved PARP positive nuclei fraction": 221}, {"smiles": "CC(C)C[C@H](NC(=O)[C@H](Cc1ccccc1)NC(=O)c1cnccn1)B(O)O", "note": "[Bortezomib] + O=c1cc(-c2cccc3c2Sc2ccccc2S3)oc(N2CCOCC2)c1 [KU55933] (first compound 0.001 µM, partner dose 1 µM)", "cleaved PARP positive nuclei fraction": 1280}, {"smiles": "Cn1c(=O)n(-c2ccc(C(C)(C)C#N)cc2)c2c3cc(-c4cnc5ccccc5c4)ccc3ncc21", "note": "+ OCCn1cc(-c2cnc3nnn(Cc4ccc5ncccc5c4)c3n2)cn1 [PF04217903] (first compound 0.004 µM, partner dose 1 µM)", "cleaved PARP positive nuclei fraction": 178}, {"smiles": "Cn1c(=O)n(-c2ccc(C(C)(C)C#N)cc2)c2c3cc(-c4cnc5ccccc5c4)ccc3ncc21", "note": "+ c1cc(-c2cnn3cc(-c4ccc(OCCN5CCCCC5)cc4)cnc23)ccn1 [Dorsomorphin] (first compound 0.004 µM, partner dose 0.4 µM)", "cleaved PARP positive nuclei fraction": 107}, {"smiles": "O=C(O)c1ccc2c(c1)nc(Nc1cccc(Cl)c1)c1ccncc12", "note": "+ COc1ccc(-c2ccc3c(N4CCOCC4)nc(N4C[C@@H](C)O[C@@H](C)C4)nc3n2)cc1CO [KU0063794] (first compound 0.4 µM, partner dose 0.02 µM)", "cleaved PARP positive nuclei fraction": 74}]}, {"tested_on": "WM1745", "experiment": "cleaved PARP positive nuclei fraction relative to DMSO control; melanoma cells; higher = more apoptosis", "conditions": "library dose: low library concentration; 72 h", "units": {"cleaved PARP positive nuclei fraction": "%"}, "values": [{"smiles": "O=C(O)[C@@H]1[O][Sb](=[O])([O][Sb]2(=[O])[O][C@H]([C@H](O)CO)[C@H](O)[C@H](C(=O)O)[O]2)[O][C@H]([C@H](O)CO)[C@@H]1O", "note": "(stereo not given in full) [stibogluconate] + OCCn1cc(-c2cnc3nnn(Cc4ccc5ncccc5c4)c3n2)cn1 [PF04217903] (first compound 2 µM, partner dose 1 µM)", "cleaved PARP positive nuclei fraction": 96.1}, {"smiles": "C[C@@H](Oc1cc(-c2cnn(C3CCNCC3)c2)cnc1N)c1c(Cl)ccc(F)c1Cl", "note": "[Crizotinib] + Oc1cc(-c2nc(-c3ccccc3)[nH]c2-c2ccncc2)ccc1Cl [L779450] (first compound 0.2 µM, partner dose 0.2 µM)", "cleaved PARP positive nuclei fraction": 88.8}, {"smiles": "C[C@@H](Oc1cc(-c2cnn(C3CCNCC3)c2)cnc1N)c1c(Cl)ccc(F)c1Cl", "note": "[Crizotinib] + CCCCCCCCCCCC1=C(O)C(=O)C=C(O)C1=O [Embelin] (first compound 0.2 µM, partner dose 1.2 µM)", "cleaved PARP positive nuclei fraction": 82.6}, {"smiles": "Nc1ncn([C@H]2C[C@H](O)[C@@H](CO)O2)c(=O)n1", "note": "[decitabine] + O=C(Nc1ccccc1)c1cc([N+](=O)[O-])ccc1Cl [GW9662] (first compound 0.1 µM, partner dose 2 µM)", "cleaved PARP positive nuclei fraction": 91.2}, {"smiles": "C[C@@H](Oc1cc(-c2cnn(C3CCNCC3)c2)cnc1N)c1c(Cl)ccc(F)c1Cl", "note": "[Crizotinib] + O=c1cc(-c2cccc3c2Sc2ccccc2S3)oc(N2CCOCC2)c1 [KU55933] (first compound 0.2 µM, partner dose 1 µM)", "cleaved PARP positive nuclei fraction": 105}, {"smiles": "CS(=O)(=O)CCNCc1ccc(-c2ccc3ncnc(Nc4ccc(OCc5cccc(F)c5)c(Cl)c4)c3c2)o1", "note": "[lapatinib] + OCCn1cc(-c2cnc3nnn(Cc4ccc5ncccc5c4)c3n2)cn1 [PF04217903] (first compound 0.8 µM, partner dose 1 µM)", "cleaved PARP positive nuclei fraction": 447}, {"smiles": "Cc1cc(Nc2cc(N3CCN(C)CC3)nc(/C=C/c3ccccc3)n2)n[nH]1", "note": "+ N#Cc1c(O)c2c(-c3ccc(-c4ccccc4O)cc3)csc2[nH]c1=O [A769662] (first compound 0.04 µM, partner dose 2 µM)", "cleaved PARP positive nuclei fraction": 98.2}, {"smiles": "CCCS(=O)(=O)Nc1ccc(F)c(C(=O)c2c[nH]c3ncc(Cl)cc23)c1F", "note": "+ COc1cc2ncnc(Nc3ccc(Oc4ccccc4)cc3)c2cc1OC [SrcI1] (first compound 0.08 µM, partner dose 2 µM)", "cleaved PARP positive nuclei fraction": 106}, {"smiles": "Nc1nc(F)nc2c1ncn2[C@@H]1O[C@H](CO)[C@@H](O)[C@@H]1O", "note": "[fludarabine] + CO[C@@H]1[C@H](N(C)C(=O)c2ccccc2)C[C@H]2O[C@]1(C)n1c3ccccc3c3c4c(c5c6ccccc6n2c5c31)C(=O)NC4 [Midostaurin] (first compound 0.2 µM, partner dose 0.08 µM)", "cleaved PARP positive nuclei fraction": 113}, {"smiles": "Nc1ncn([C@H]2C[C@H](O)[C@@H](CO)O2)c(=O)n1", "note": "[decitabine] + O=C(O)c1ccc(-c2c[nH]c3ncc(-c4ccccc4)cc23)cc1C1CCCC1 [GSK650394] (first compound 0.1 µM, partner dose 0.16 µM)", "cleaved PARP positive nuclei fraction": 98.2}, {"smiles": "CN1CCN(c2ccc3nc(-c4c(N)c5c(F)cccc5[nH]c4=O)[nH]c3c2)CC1", "note": "[Dovitinib] + Oc1cc(-c2nc(-c3ccccc3)[nH]c2-c2ccncc2)ccc1Cl [L779450] (first compound 0.1 µM, partner dose 0.2 µM)", "cleaved PARP positive nuclei fraction": 100}, {"smiles": "CS(=O)(=O)CCNCc1ccc(-c2ccc3ncnc(Nc4ccc(OCc5cccc(F)c5)c(Cl)c4)c3c2)o1", "note": "[lapatinib] + O=S(=O)(c1ccccc1)N(CC(F)(F)F)c1ccc(C(O)(C(F)(F)F)C(F)(F)F)cc1 [T0901317] (first compound 0.8 µM, partner dose 1.4 µM)", "cleaved PARP positive nuclei fraction": 94.4}, {"smiles": "CNC(=O)c1cc(Oc2ccc(NC(=O)Nc3ccc(Cl)c(C(F)(F)F)c3)cc2)ccn1", "note": "[sorafenib] + O=C(O)c1ccc(-c2c[nH]c3ncc(-c4ccccc4)cc23)cc1C1CCCC1 [GSK650394] (first compound 0.4 µM, partner dose 0.16 µM)", "cleaved PARP positive nuclei fraction": 84.9}, {"smiles": "CC(C)C[C@H](NC(=O)[C@H](Cc1ccccc1)NC(=O)c1cnccn1)B(O)O", "note": "[Bortezomib] + NC(=O)Nc1cc(-c2cccc(F)c2)sc1C(=O)N[C@H]1CCCNC1 [AZD7762] (first compound 0.001 µM, partner dose 0.02 µM)", "cleaved PARP positive nuclei fraction": 189}, {"smiles": "Nc1nc(F)nc2c1ncn2[C@@H]1O[C@H](CO)[C@@H](O)[C@@H]1O", "note": "[fludarabine] + NCC(=O)Nc1ccc(-n2nc(C(F)(F)F)cc2-c2ccc3c(ccc4ccccc43)c2)cc1 [OSU03012] (first compound 0.2 µM, partner dose 1 µM)", "cleaved PARP positive nuclei fraction": 179}, {"smiles": "CC(C)C[C@H](NC(=O)[C@H](Cc1ccccc1)NC(=O)c1cnccn1)B(O)O", "note": "[Bortezomib] + COc1cc2c(Oc3ccc4[nH]c(C)cc4c3F)ncnc2cc1OCCCN1CCCC1 [cediranib] (first compound 0.001 µM, partner dose 0.4 µM)", "cleaved PARP positive nuclei fraction": 144}, {"smiles": "CC(C)C[C@H](NC(=O)[C@H](Cc1ccccc1)NC(=O)c1cnccn1)B(O)O", "note": "[Bortezomib] + C[C@@H]1CCN(C(=O)CC#N)C[C@@H]1N(C)c1ncnc2[nH]ccc12 [CP690550] (first compound 0.001 µM, partner dose 1 µM)", "cleaved PARP positive nuclei fraction": 119}, {"smiles": "Nc1ccn([C@@H]2O[C@H](CO)[C@@H](O)C2(F)F)c(=O)n1", "note": "[gemcitabine] + C=CCn1c(=O)c2cnc(Nc3ccc(N4CCN(C)CC4)cc3)nc2n1-c1cccc(C(C)(C)O)n1 [MK1775] (first compound 0.0004 µM, partner dose 0.02 µM)", "cleaved PARP positive nuclei fraction": 240}, {"smiles": "CNC(=O)c1cc(Oc2ccc(NC(=O)Nc3ccc(Cl)c(C(F)(F)F)c3)cc2)ccn1", "note": "[sorafenib] + COc1cc2c(Oc3ccc4[nH]c(C)cc4c3F)ncnc2cc1OCCCN1CCCC1 [cediranib] (first compound 0.4 µM, partner dose 0.4 µM)", "cleaved PARP positive nuclei fraction": 94.8}, {"smiles": "CNC(=O)c1cc(Oc2ccc(NC(=O)Nc3ccc(Cl)c(C(F)(F)F)c3)cc2)ccn1", "note": "[sorafenib] + Cc1ccc(NC(=O)c2cccc(N(C)C)c2)cc1NC(=O)c1ccc(O)cc1 [ZM336372] (first compound 0.4 µM, partner dose 2 µM)", "cleaved PARP positive nuclei fraction": 112}]}]}
